These are yes or no findings as the source states them, for the method shown. Some binding calls cover weakened binding; strength is not graded here.
Tests used:
[1] = biological target: T1, 重组人白介素17A (recombinant human interleukin 17A) (human) (UniProt Q16552); test: ELISA, rh IL-17A coated on plate, HRP goat anti-human IgG-Fc detection; relative binding activity vs reference; samples stored at 25℃±2℃
T1 sequence (looked up): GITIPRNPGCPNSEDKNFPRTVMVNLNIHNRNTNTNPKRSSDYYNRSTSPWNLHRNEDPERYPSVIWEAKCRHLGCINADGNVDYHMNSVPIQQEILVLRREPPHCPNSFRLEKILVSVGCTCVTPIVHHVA

[2] = biological target: T1, 重组人白介素17A (recombinant human interleukin 17A) (human); test: ELISA, rh IL-17A coated on plate, HRP goat anti-human IgG-Fc detection; relative binding activity vs reference; samples stored at 5℃±3℃

B1: 人源化抗人IL-17A单克隆抗体 (humanized anti-human IL-17A monoclonal antibody; SEQ ID NO.: 7 and SEQ ID NO.: 8) (antibody, V domains shown)
VH: QIQLVQSGPELKKPGETVKISCKASEYIFTNYGMNWVKEAPGKAFKWMGWIDTNTGEPTYAEDFKGRFAFSLDSSATSAFLQISNLKDDDTGTYFCANYGWGYFDYWGQGTTLTVSS
VL: DVVMTQTPLSLPVSLRDQASISCISSQSLVHSNGYTYLHWYLQKPGQSPKLLIYKVSNRFSGVPDRFSGSGSGTDFTLKISRVEAADLGVYFCSQSTHVPYTFGGGTKLEIK
binding [1]: binds | binding [2]: binds

From patent publication CN110585430A
